The whole screen tested about 400,000 compounds, of which about 13,000 (3.2%) were called active. The shares of active, inactive and inconclusive entries below differ from those in the screen. Calls come from the whole dose curve; as a rule, active = well fitted cell-killing curve with a large enough effect; inconclusive = small, poorly fitted or top-dose-only effect, or effect the other way; inactive = flat fitted curve, though single readings scatter. Potencies beside an inconclusive call are fits to weak or partial responses and may not hold up.
Test: qHTS assay for MDR1-selective chemotherapeutics: Primary screen using the drug-selected MDR subline cells KB-V1; note: nearly all actives have a fitted effect of over 60% in size
Details: KB-V1 MDR cells viability, CellTiter-Glo, 72 h; activity change, negative = cytotoxicity: at 46.1 µM (top of the series)
How it was run: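 Compound-treated KB-V1 multidrug-resistant cells, 72 h, 37 degrees C; viability by CellTiter-Glo. Fitted qHTS curves give the values.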
% is set by controls: 0 for no effect and ±100 for the full control effect; potency is the fitted concentration of half-maximal effect.

Row | SMILES | Potency | activity change, negative = cytotoxicity
1 | COc1ccc(-c2cnc(OC(C)(C)C)nc2OC(C)(C)C)cc1OC | inconclusive: 29.1 µM [cytotoxic, single point] | –
2 | NC(Cc1ccc(Cl)cc1)c1csc(NC(=O)Nc2ccccc2)n1 (stereo not given) | – | inactive: 1.13%
3 | CCOC(=O)C1CCN(c2ccccc2CN2CCN(c3ccccc3OCC)CC2)CC1 | inconclusive: 29.1 µM [cytotoxic, single point] | –
4 | C#CCOCCOCCOCCNc1nc(N2CCOCC2)nc(N2CCN(C(=O)[C@H](Cc3ccc(O)cc3)n3cc(CCO)nn3)CC2)n1 | inconclusive: 29.1 µM [rising, single point] | –
5 | CCOc1cccc(OCCOCCOc2ccccc2C(C)=O)c1 | active: 14.6 µM | –
6 | COc1ccc(Br)cc1CN1CCN(C(=O)c2ccc(F)cc2)CC1 | inconclusive: 9.2 µM [cytotoxic, partial curve] | –
7 | O=C(COc1ccc(F)cc1Br)N1CCN(S(=O)(=O)/C=C/c2ccccc2)CC1 | inconclusive: 20.6 µM [cytotoxic, single point] | –
8 | CC1(c2ccc3noc(-c4ccccc4)c3c2)OCCO1 | – | inactive: -1.84%
9 | CCOC(=O)C1CCN(C(=O)c2ccccc2)C(CC)C1=O (stereo not given) | active: 20.6 µM | –
10 | C/C(=N\NC(=O)c1nnn(-c2nonc2N)c1-c1ccc2c(c1)OCO2)c1ccc(F)cc1 | inconclusive: 10.3 µM [rising, partial curve] | –
11 | Cc1ccc(O)c(C2=NNC(c3ccc(Cl)cc3)C2)c1 (stereo not given) | – | inactive: -20.8%
12 | COc1ccc(/C=N/NC(=O)c2cccc3ccccc23)c(OC)c1OC | inconclusive: 18.4 µM [cytotoxic, single point] | –
13 | O=C(Nc1ccc2c(c1)OCCO2)c1ccc(Br)s1 | active: 13 µM | –
14 | CSc1nc(Nc2ccc(Cl)cc2)c(C#N)c(=O)[nH]1 | active: 5.17 µM | –
15 | Cc1ccc(NC(=O)CCC(=O)NNC(=S)Nc2ccccc2)c(C)c1 | – | inactive: 1.65%
16 | COc1c(Cl)cc(Cl)cc1/C=C/C(=O)c1ccc(NC(=O)c2cccs2)cc1 | active: 18.4 µM | –
17 | C/C(CCc1ccc2c(c1)OCO2)=N\N=C1\NC(=O)CC(C(=O)Nc2ccccc2F)S1 (stereo not given) | – | inactive: 13.8%
18 | c1ccc(-n2nnc3c(N4CCOCC4)ncnc32)cc1 | active: 16.4 µM | –
19 | Cc1ccc(C(=O)Nc2c(-c3cccs3)c(=O)c3ccccc3n2C)cc1 | inconclusive: 32.6 µM [cytotoxic, single point] | –
20 | Cc1ccccc1Cn1nc(C)c(NC(=O)c2noc3c2CCCC3)c1C | active: 5.17 µM | –
21 | CCn1c(CNC(=O)c2ccc(OC)c(OC)c2)nnc1SCC(=O)c1ccc(OC)cc1 | inconclusive: 20.6 µM [rising, partial curve, poor fit] | –
22 | Cc1ccc(NC(=O)CSc2ccc(-c3cccnc3)nn2)cc1 | inconclusive: 13 µM [cytotoxic, partial curve] | –
23 | Cc1cccc(C)c1NC(=O)c1ccc([N+](=O)[O-])s1 | inconclusive: 20.6 µM [cytotoxic, single point] | –
24 | Cc1nc(-c2ccc(C(=O)N3CCCC3)cc2)cs1 | inconclusive: 16.4 µM [cytotoxic, partial curve] | –

Row | SMILES | Potency | activity change, negative = cytotoxicity
25 | O=C(NC(c1ccccc1)c1ccccc1)c1cccc(S(=O)(=O)NCc2ccccc2)c1 | – | inactive: -23.4%
26 | O=C1C(=Cc2ccccc2Cl)CCc2ccccc21 | inconclusive: 32.6 µM [cytotoxic, partial curve, poor fit] | –
27 | Cc1sc2ncnc(NCc3ccccc3)c2c1C | inconclusive: 18.4 µM [cytotoxic, partial curve, poor fit] | –
28 | Cc1cc(Cl)ccc1OCC(=O)NCCOc1nc(N2CCCCC2)nc(N2CCOCC2)n1 | active: 4.11 µM | –
29 | O=C(Nc1ncc2c(n1)CC(c1ccc(Cl)cc1)CC2=O)c1ccco1 (stereo not given) | inconclusive: 16.4 µM [cytotoxic, single point] | –
30 | COCCn1nnnc1C(c1cccs1)N1CCN(c2cccc(C(F)(F)F)c2)CC1 (stereo not given) | inconclusive: 18.4 µM [cytotoxic, single point] | –
31 | O=C(Nc1ncccc1Cl)C(Sc1ccccc1)c1ccccc1 (stereo not given) | inconclusive: 29.1 µM [cytotoxic, single point] | –
32 | O=C(CSc1nc(-c2ccco2)cc(C(F)(F)F)n1)Nc1ccccc1C(F)(F)F | inconclusive: 18.4 µM [cytotoxic, single point] | –
33 | Cc1ccc(C)c(N2CCN(C(=O)CCCCn3c(=O)[nH]c4ccccc4c3=O)CC2)c1 | active: 6.51 µM | –
34 | COc1ccc(-c2cc(C(=O)OCC(=O)N(C)C)c3ccccc3n2)cc1 | – | inactive: -14%
35 | CC(Sc1n[nH]c(N)n1)C(=O)C12CC3CC(CC(C3)C1)C2 (stereo not given) | – | inactive: 3%
36 | COc1ccc(/C=C/C(=O)NCC(=O)N/N=C(/C)c2ccc(Cl)cc2)cc1 | – | inconclusive: -9.12%
37 | Cc1[nH]c2ccccc2c1/C=C/c1nccc2ccccc12 | inconclusive: 5.8 µM [cytotoxic, full curve] | –
38 | CSCCC(NC(=O)c1ccccc1Cl)C(=O)NCC1COc2ccccc2O1 (stereo not given) | inconclusive: 8.2 µM [cytotoxic, partial curve] | –
39 | CCC(N=c1cc(-c2ccc(OC)c(OC)c2)oc2ccc(C)cc12)C(=O)O (stereo not given) | inconclusive: 25.9 µM [cytotoxic, single point] | –
40 | COc1cc2[nH]c(C(=O)NCc3ccccc3)cc2c(OC)c1OC | – | inactive: -20%
41 | C=C1C(=O)[C@]23C[C@H]1CCC2[C@@]1(C)C(C[C@@H]3O)[C@](C)(C(=O)OC)CC[C@@H]1OC(C)=O (stereo not given in full) | active: 16.4 µM | –
42 | Cc1cccc(N2CCN(C(c3ccncc3)c3nnnn3C(C)(C)C)CC2)c1C (stereo not given) | – | inactive: -25%
43 | O=C(CNC(=O)Cn1cnc2sc3c(c2c1=O)CCCC3)NCc1ccccn1 | – | inactive: -5.94%
44 | CC(=O)c1cccc(NS(=O)(=O)c2cc3c(cc2C)NC(=O)CO3)c1 | inconclusive: 29.1 µM [rising, single point] | –
45 | COc1ccc(C2C=CC(=O)CC2)c(OC)c1 (stereo not given) | – | inactive: 0.827%
46 | COc1cc(/C=N/Nc2nn3cnnc3c3ccccc23)ccc1O | inconclusive: 29.1 µM [cytotoxic, single point] | –
47 | CCOc1cc(CNCCCN2CCOCC2)cc(Br)c1OCc1ccccc1Cl | inconclusive: 23.1 µM [cytotoxic, partial curve, poor fit] | –
48 | O=C1CC2(CCN(C(=O)COc3ccccc3F)CC2)Oc2ccccc21 | inconclusive: 29.1 µM [cytotoxic, single point] | –

Exported in CSV form: entries from further up
Row,SMILES,Potency,"activity change, negative = cytotoxicity"
25,O=C(NC(c1ccccc1)c1ccccc1)c1cccc(S(=O)(=O)NCc2ccccc2)c1,–,inactive: -23.4%
26,O=C1C(=Cc2ccccc2Cl)CCc2ccccc21,"inconclusive: 32.6 µM [cytotoxic, partial curve, poor fit]",–
27,Cc1sc2ncnc(NCc3ccccc3)c2c1C,"inconclusive: 18.4 µM [cytotoxic, partial curve, poor fit]",–

Next part.

Row | SMILES | Potency | activity change, negative = cytotoxicity
49 | CCCCNc1nc2ccccc2nc1Cl | – | inactive: -0.129%
50 | CC(=O)c1cccc(NC(=O)Nc2ccc3c(c2)CCC3)c1 | inconclusive: 10.3 µM [cytotoxic, partial curve, poor fit] | –
51 | COc1cc(C(=O)OCC(=O)Nc2ccc(OC(F)F)cc2)cc(OC)c1OC | – | inactive: -0.78%
52 | O=C(Nc1ccccc1)c1cccc2c(-c3cccnc3)coc12 | – | inactive: 0%
53 | COc1ccc(C(=O)C2CCN(C(=O)c3ccc(C)cc3)CC2)cc1 | inconclusive: 29.1 µM [cytotoxic, single point] | –
54 | COc1ccccc1NC(C)C(=O)Nc1ccc(C(C)=O)cc1 (stereo not given) | inconclusive: 23.1 µM [cytotoxic, single point] | –
55 | COc1ccc(N(C(=O)c2ccccc2C)S(=O)(=O)c2cccs2)cc1 | active: 1.3 µM | –
56 | O=S(=O)(N1CCCCC1)N1CCN(CC(O)COc2ccc3cc(Br)ccc3c2)CC1 (stereo not given) | inconclusive: 3.98 µM [cytotoxic, full curve] | –
57 | CC(NS(=O)(=O)c1cccc(C(=O)NCc2ccncc2)c1)c1ccccc1 (stereo not given) | inconclusive: 29.1 µM [rising, single point] | –
58 | Cc1ccc(S(=O)(=O)N2CCCCC2)cc1C(=O)N(C)CC(=O)Nc1ccc(Cl)c(C(F)(F)F)c1 | inconclusive: 25.9 µM [cytotoxic, single point] | –
59 | Cc1cc(=O)n2[nH]c(C)c(-c3ccc(Cl)cc3)c2n1 | inconclusive: 29.1 µM [cytotoxic, single point] | –
60 | CCOc1ccc(N(CC(=O)NCCc2ccccc2)S(=O)(=O)c2ccccc2)cc1 | inconclusive: 4.11 µM [cytotoxic, partial curve] | –
61 | COc1ccc(C2=NS(=O)(=O)N(C)C(C(=O)N(C)Cc3ccccc3)=C2)cc1OC | inconclusive: 23.1 µM [cytotoxic, single point] | –
62 | Cc1ccc(Cl)cc1NC(=O)COC(=O)C1CCCC1 | inconclusive: 14.6 µM [rising, single point] | –
63 | Cc1ccc(C(=O)Nc2ccc(Cl)cn2)cc1S(=O)(=O)N1CCOCC1 | inconclusive: 16.4 µM [cytotoxic, partial curve, poor fit] | –
64 | Cc1[nH]n(-c2ccccc2)c(=O)c1C=Nc1ccc(S(=O)(=O)N=C(N)N)cc1 | – | inactive: 3.48%
65 | O=C(NCCCN1CCCC1)c1ccc2c(c1)N(Cc1ccccc1F)C(=O)c1ccccc1S2=O (stereo not given) | inconclusive: 29.1 µM [rising, single point] | –
66 | COc1ccc(CNC(=O)CSc2nnc(NC(=O)C3CC3)s2)cc1 | inconclusive: 5.17 µM [rising, full curve, poor fit] | –
67 | Cc1ccccc1C(=O)c1c[nH]c(C(=O)NCCc2ccccn2)c1 | inconclusive: 16.4 µM [cytotoxic, single point] | –
68 | CCOC(=O)c1c(C)n(C)c2ccc(OC)c(NC(=O)CN3CCC(C(=O)OCC)CC3)c12 | inconclusive: 9.2 µM [cytotoxic, partial curve, poor fit] | –
69 | COc1ccc(OC)c(S(=O)(=O)N2CCC(C(=O)NCc3ccccc3OC)CC2)c1 | inconclusive: 14.6 µM [cytotoxic, single point] | –
70 | O=C(Nc1ccc([N+](=O)[O-])cc1)N1CCCCCC1 | inconclusive: 7.31 µM [rising, partial curve, poor fit] | –
